Results are given in words; binding and its absence hold for the method and conditions named. Some binding calls cover weakened binding; strength is not graded here.
T1: UNC-89 SH3 domain (59–128) (C. elegans) (UniProt O01761)
T1 sequence: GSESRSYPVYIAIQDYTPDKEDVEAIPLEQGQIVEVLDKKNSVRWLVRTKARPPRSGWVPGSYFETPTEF

B1: MEC-2 C-terminal domain (residues 371–481), wild type (domain or fragment, UniProt Q27433 371-481)
chain: PPKVEEPPSLPKKIRSCCLYKYPDWVQGMVGSEGGGGHGHSHGGGGGGLGSSQGAFHPSQAGSGPSTTTTSGRPLLRSMREAQFHSAAPPISAPNQSQTSVSQLDPALLIR
B2: MEC-2 C-terminal domain R385H mutant (domain or fragment, C. elegans, UniProt Q27433 371-481, looked up)
chain: PPKVEEPPSLPKKIHSCCLYKYPDWVQGMVGSEGGGGHGHSHGGGGGGLGSSQGAFHPSQAGSGPSTTTTSGRPLLRSMREAQFHSAAPPISAPNQSQTSVSQLDPALLIR
notes: MEC-2 (stomatin), C. elegans, C-terminal domain, residues 371-481 as for the wild-type construct, with R385H (allele u26); also called MEC-2 (R385H); u26 allele
B3: MEC-2 C-terminal domain ∆PRM mutant (377PPxxP381→377AAxxA381) (domain or fragment, UniProt Q27433 371-481)
chain: PPKVEEAASLAKKIRSCCLYKYPDWVQGMVGSEGGGGHGHSHGGGGGGLGSSQGAFHPSQAGSGPSTTTTSGRPLLRSMREAQFHSAAPPISAPNQSQTSVSQLDPALLIR

The binders below were run against T1, UNC-89 SH3 domain (59–128) (C. elegans) (assay: NMR titration; 1H-15N correlation spectra of 15N,13C-labelled MEC-2 (371-481) with 10 molar equivalents of UNC-89 SH3 domain, and vice versa (one ratio, no series); chemical shift perturbations and intensity ratios I/I0; NMR experiments recorded at 278 K; NMR buffer 20 mM sodium phosphate pH 7.4, 1 mM TCEP, 0.05% NaN3; both purified).

Binder	binding
B1	binds weakly
B2	binds weakly
B3	no binding
